# Experimental data from patent US6737059B1, “Methods of inhibiting inflammatory processes and alleviating symptoms associated with multiple sclerosis” (Board of Regents of the University Washington, priority 1992, dated 2004).
# At least one compound was matched to its structure with a doubt left.
# Tested on: white blood cell
# Assay: WBC counts in blood of EAE animals
# Format: in vivo, Macaca fascicularis
# Settings: two animals that survived 9 days or longer
# Excerpt: The hematologic hallmarks of untreated EAE are a progressive leukocytosis and lymphopenia prior to the onset of clinical signs. The leukocytosis can represent as much as a four-fold increase in the number of circulating PMNC and no significant changes in the frequency or absolute numbers of monocytes, eosinophils, or basophils. Following successful treatments of EAE, the absolute numbers of lymphocytes and PMNC return, fairly soon after the initiation of treatment, to pre-sensitization levels. Thus, continuous monitoring of blood leukocytes provides a useful measure of disease progression which complements the clinical evaluation and magnetic resonance imaging.
# Blood was drawn on a weekly basis until the onset of clinical disease and then more frequently. One-half ml was sent to the hematology laboratory for WBC and differential counts. The results are set out in Table 3 below providing white blood cell number (×10^3) per mm^3 whole blood.
# Two Macaca fascicularis monkeys were then involved in a study to preliminarily determine the ability of mAb 23F2G to alleviate EAE symptoms. The EAE induction procedures were essentially as in Example 1. […] Lesions detected by MRI resolved four days after cessation of treatment and the animal improved dramatically with complete resolution of paralysis. […]
compound,measurement,value
C[C@@H]1C[C@H]2[C@@H]3CCC4=CC(=O)C=C[C@]4(C)[C@@]3(F)[C@@H](O)C[C@]2(C)[C@@]1(O)C(=O)CO [dexamethasone],time after initiation of treatment at which white blood cell counts dropped to pre-sensitization levels,two
